No constants are given. Whether binding was seen depends on the method and setting. Binding seen in cells or lysates may run through a third protein. A yes stands for co-enrichment or nearness to the bait. Other partners may have been found. For some assays here: A no says only that the protein was not detected with the bait.
Assays:
Dhp1-FTP (S. pombe) = molecular target: T1, Dhp1-FTP (S. pombe) (UniProt P40848); test: affinity purification with mass spectrometry; two-step affinity purification of FTP-tagged bait (Flag-TEV-protein A) from S. pombe, in the presence of Benzonase; co-purified proteins identified by LC-MS/MS; untagged strain as control
T1 sequence: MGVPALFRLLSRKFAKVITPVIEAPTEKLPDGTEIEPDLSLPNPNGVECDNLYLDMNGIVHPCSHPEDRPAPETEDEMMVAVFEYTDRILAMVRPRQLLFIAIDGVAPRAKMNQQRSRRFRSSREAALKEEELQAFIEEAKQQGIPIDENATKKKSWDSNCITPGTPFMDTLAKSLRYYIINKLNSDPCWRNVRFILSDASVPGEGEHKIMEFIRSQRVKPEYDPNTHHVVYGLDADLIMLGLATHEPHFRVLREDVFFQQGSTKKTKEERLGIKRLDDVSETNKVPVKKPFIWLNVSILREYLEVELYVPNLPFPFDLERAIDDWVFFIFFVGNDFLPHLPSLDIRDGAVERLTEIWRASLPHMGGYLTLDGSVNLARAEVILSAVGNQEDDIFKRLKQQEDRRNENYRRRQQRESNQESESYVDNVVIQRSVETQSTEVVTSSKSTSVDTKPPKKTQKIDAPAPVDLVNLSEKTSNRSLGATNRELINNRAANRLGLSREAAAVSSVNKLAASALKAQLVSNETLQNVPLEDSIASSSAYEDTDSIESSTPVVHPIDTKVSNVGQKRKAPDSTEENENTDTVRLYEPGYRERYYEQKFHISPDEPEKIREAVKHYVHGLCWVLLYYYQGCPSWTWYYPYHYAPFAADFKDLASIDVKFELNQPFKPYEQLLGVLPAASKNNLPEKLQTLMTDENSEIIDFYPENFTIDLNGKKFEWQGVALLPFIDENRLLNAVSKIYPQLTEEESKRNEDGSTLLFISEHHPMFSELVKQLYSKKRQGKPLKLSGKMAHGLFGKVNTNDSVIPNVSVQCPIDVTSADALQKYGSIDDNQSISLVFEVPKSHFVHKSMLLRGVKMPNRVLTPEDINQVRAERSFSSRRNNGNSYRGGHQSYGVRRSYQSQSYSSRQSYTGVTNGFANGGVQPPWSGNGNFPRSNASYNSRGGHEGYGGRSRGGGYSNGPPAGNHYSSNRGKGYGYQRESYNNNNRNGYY

Din1-FTP (S. pombe) = molecular target: T2, Din1-FTP (S. pombe) (UniProt O13836); test: as above
T2 sequence: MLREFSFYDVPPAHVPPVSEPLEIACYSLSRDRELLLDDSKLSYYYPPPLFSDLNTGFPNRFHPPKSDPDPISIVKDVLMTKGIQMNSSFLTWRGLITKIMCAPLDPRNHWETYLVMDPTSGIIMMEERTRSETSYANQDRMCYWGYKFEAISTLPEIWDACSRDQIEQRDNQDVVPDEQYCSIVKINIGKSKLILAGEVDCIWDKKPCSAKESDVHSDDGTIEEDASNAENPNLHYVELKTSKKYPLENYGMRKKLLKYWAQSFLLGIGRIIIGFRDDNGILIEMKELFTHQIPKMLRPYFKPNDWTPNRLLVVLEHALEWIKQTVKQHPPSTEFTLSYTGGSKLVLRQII

Binder | binding (Dhp1-FTP (S. pombe)) | binding (Din1-FTP (S. pombe))
Din1 (protein, UniProt O13836 1-352) MLREFSFYDVPPAHVPPVSEPLEIACYSLSRDRELLLDDSKLSYYYPPPLFSDLNTGFPNRFHPPKSDPDPISIVKDVLMTKGIQMNSSFLTWRGLITKIMCAPLDPRNHWETYLVMDPTSGIIMMEERTRSETSYANQDRMCYWGYKFEAISTLPEIWDACSRDQIEQRDNQDVVPDEQYCSIVKINIGKSKLILAGEVDCIWDKKPCSAKESDVHSDDGTIEEDASNAENPNLHYVELKTSKKYPLENYGMRKKLLKYWAQSFLLGIGRIIIGFRDDNGILIEMKELFTHQIPKMLRPYFKPNDWTPNRLLVVLEHALEWIKQTVKQHPPSTEFTLSYTGGSKLVLRQII | binds | 
Clr4 methyltransferase complex (ClrC) subunit Rik1 (protein, UniProt Q10426 1-1040) MALCVHSFWATAVDTATSCHFISSENCLVLLQALKINIYLCSEVHGLQFFTSIPLFSTVKHIRPYRPPGLDRDYLFVVLNDDTYFSIYWDEDYQKVIVDHPPVRYRVTFPWNRNAKSYCLVDLRMRAIFLSIDEISMICIRILSAEERLKTGRSIDSGFPFSFPVHLIYDMCILNDSSTPTLVVLHSDGLDCYVTAFLLDLSSKSLGKGIRLFERVKPSMIMPFGKRGLLVFESLFIHCMYRGNFVTINGPCTTYMHWTPLKGQKMHYIVCDTNGYLFGVYSSILGKNKWSLVMERLPIPPFDFITSLNSIHEGLLFIGSKNSESKLINLSTLKDVDSIPNLGPIHDLLVLKNDIEKSFLVCAGTPRNASLIYFQHALKLDILGQTKISGILRAMVLPSYPEHKLFLGFPSETVAFNIKEDFQLELDPSLSTKERTIALSGTNGEFVQVTSTFLCIYDSAKRSRLVYIEKITNAACYQEYSAIVINGTALAIFKKDTEVARKVFESEISCLDFSAQFQIGVGFWSKQVMILTFSDNSSISCAFQTNVPSLPRNIILEGVGVDRNLLLVSSGSGEFKSYVLFKNNLVFSETKHFGTTPVSFRRFTMNIGTYIICNNDCPHMVYGFNGALCYMPLSMPQSYDVCQFRDNSGKDFLISVSLGGLKFLQLNPLPELTPRKVLLEHVPLQAIIFQNKLLLRTLENRYEDYESYKENYHLELVDSYDDNSFRVFSFTENERCEKVLKINESSLLVGTSIIEQDKLVPVNGRLILLEFEKELQSLKVVSSMVLSAAVIDLGVYNDRYIVAFGQQVAIVKLTEERLMIDSRISLGSIVLQLIVEGNEIAIADSIGRFTIMYFDGQKFIVVARYLFGENIVKAALYEGTVYIIATNSGLLKLLRYNKDAKNFNDRFICESVYHLHDKVSKFQNFPITNTNSFLEPKMLFATEIGAIGSIVSLKDKELELEELTRKIRKLKFSYLSSMDYESIEADLISPVPFIDGDLVIDVKRWASSELFRLCRSVEHRESLNSYQKVQALLEEIQSLC | binds | no binding
exosome subunit Rrp6 (enzyme, UniProt Q10146 1-777) MDESELFKGLMNSTAYCSELAKVDIPFYKSIDTEFNENIKSVSSRFMRLIELLLSKVDRSRAEDIVDVEDIDNRWAEVSDTLDILFEKADYSIDKAQGLLKKPAIETHASTSDVANKKPKKEKLPYKVIHAAHLTKPQLRFRVQPNNSREFVWSWKLTEKPHSLVPLEKIIAQVKLDPSLKNSLPHPYEPEIQNSVYPPWVSEMSNPIDTGSVDETEPIWVSTESQLSDMLKELQNSKEIAVDLEHHDYRSFRGFVCLMQISNREKDWIVDTLELREELEALNVVFTNPNIIKVFHGATMDIIWLQRDFGLYVVNLFDTYYATKVLGFEGHGLAFLLQKYCDYDADKRYQMADWRIRPLPREMLKYAQSDTHYLLYIWDHLRNELISKSAERKENLMQSVFNSSKQISLRKYELEPYDPIYGLGTDGWRNVLTKFGSSKIIGREALMIYRALHDWRDSVARKEDESVRYVLPNRLLIAIAASKPVEAADVFSISKQLTPIARMYVEDIVKVVQEAEKLYNEQVDREKSQFKEVEKQNQPLAVFSESNTLGDYKVDSSVFEISKQNRSKLKTLLANGSAFWIEGQSQDDLRKARKERLFIVNQNIPFSLTLPCTQGHVESELNVKQSTVTEAANPSLNGEKKQEPIVIRDLGLNKQKRDSSKLNHKEPSNPIEERNEDIEPSEASTSVSKKRKQKKKKKNSGKLTIEAEHVSNDSPIINEAPFDYKNQKNFIADLDSDVGKNKFGKRGFNPLNKVSLPKRNTRELKKRKVSDGKSTSY | binds | no binding

From article PMC4758730
